Results are given in words; binding and its absence hold for the method and conditions named. Some entries that bind do so weakly or less than the wild type. For part of these data: Where a sequence is shown, tags or fusion partners need not be part of it.
Columns and labels:
huBDNFpro (human) = target: T1, huBDNFpro (human) (UniProt P23560); assay: Western blot
T1 sequence: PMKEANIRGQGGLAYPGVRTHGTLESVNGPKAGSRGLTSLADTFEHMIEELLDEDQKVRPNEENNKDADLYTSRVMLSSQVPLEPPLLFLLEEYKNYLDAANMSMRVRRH

[1] = target: T2, GST-huBDNFpro-E5 peptide fragment (human); assay: ELISA on GST fusion protein
T2 sequence: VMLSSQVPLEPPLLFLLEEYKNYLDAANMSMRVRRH

[2] = target: T3, GST-huBDNFpro-E2 peptide fragment (human); assay: ELISA on GST fusion protein
T3 sequence: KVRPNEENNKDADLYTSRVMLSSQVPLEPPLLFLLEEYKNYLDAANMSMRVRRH

[3] = target: T4, full length GST-huBDNFpro (human) (UniProt P23560); assay: ELISA on GST fusion protein
T4 sequence: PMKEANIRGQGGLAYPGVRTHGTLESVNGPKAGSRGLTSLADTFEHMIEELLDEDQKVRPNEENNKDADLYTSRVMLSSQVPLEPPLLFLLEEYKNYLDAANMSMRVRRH

[4] = target: T5, biotinylated DH peptide fragment (human); assay: ELISA on biotinylated peptide
T5 sequence (peptide, biotinylated (position not stated)): DAANMSMRVRRH

Measured: binding

B1: 1D3 monoclonal antibody (antibody, human IgG4, kappa, V domains shown)
VH: QVQLVESGGGLIQPGGSMRLSCAASGFSLSGYDMHWVRQIAGKGLEWVAGLGMEGDSYYSASVKGRFTISRQDAKNSLYLEMKDLGGGDTAVYYCLRDVHGFDVWGQGTTVTVSS
VL: DVVMTQSPLSLPVTPGEPASISCRSSQSLLYSNGYTYLDWYLQRPGQSPQLLIYMGSNRASGVPDRFSGSGSGTDFTLKISRVEAEDVGVYYCMQALQTPLTFGGGTKLEIKR
binds: all assays above

B2: 2H8 monoclonal antibody (antibody, human IgG4, kappa, V domains shown)
VH: EVQLVETGGGLVQPGGSLRLSCAASGFTFSSYGMHWVRQAPGKGLEWVSVISGSGDSTYYAESVKGRFTISRDNARNTVYLQMNSLRAEDTAVYYCASGILTGYVFDYWGKGTMVTVSS
VL: DVVMTQSPLSLPVTLGQPASISCRSSQSLVSNDGNTYLNWFQQRPGQPPRRLIYMVSKWDSGVPDRFSGSGSGTDFTLRISRVEAEDVGVYYCMQSTHWPPTFGGGTKLEIKR
not listed: [4]
binds: all other assays above

From patent publication US20210061896A1
